Here are results for 47 compounds from the supplement of paper PMC7024190.

Counter-ions that a name gives are not always drawn. This is one part of the list. This data set is noisy: repeats of one test often differ as much as different tests do.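 The cells were human embryonic kidney cells carrying a Renilla luciferase gene, driven by the HSV-TK promoter, on a plasmid put in briefly by transfection. This is the first-round screen of about ten thousand compounds, looking for ones that raise reporter output.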

The test relates to HEK 293FT. In words: log relative Renilla luciferase luminescence (reporter expression vs reference, reference not stated) (log (base not stated)); higher = higher recombinant reporter expression. To be noted: 10 µM; time after transfection 48 h.
Turning to `CCOC(=O)OC(C)OC1=C(C(=O)Nc2ccccn2)N(C)S(=O)(=O)c2ccccc21` (configuration not stated) [ampiroxicam], the log was -0.0856.

On to `COC(=O)c1c(C)cc(O)cc1O` [methyl orsellinate], for which the log stood at 0.0163.

`CCCCCCCCCCCCC[N+](C)(C)Cc1ccccc1` [benzalkonium chloride]: the log is -1.41. Turning to `O=S(=O)(O)CCS` [mesna], the log is -0.0187.

Consider `CCn1cc(C(=O)O)c(=O)c2cnc(N3CCCC3)nc21` [piromidic acid], for which the log is 0.069. For `CC(C)Nc1ncccn1` [isaxonine] the value was 0.0607; for `CC(C)(C)NC[C@H](O)c1ccc(O)c(CO)c1` [levalbuterol hydrochloride], -0.213; for `COc1ccc(-c2cc(=O)c3c(O)cc(O[C@@H]4O[C@H](CO[C@@H]5O[C@@H](C)[C@H](O)[C@@H](O)[C@H]5O)[C@@H](O)[C@H](O)[C@H]4O)cc3o2)cc1O` [diosmin], 0.161. The figure for `O=c1c2cc(O)c(O)cc2oc2cc(O)c([C@@H]3O[C@H](CO)[C@@H](O)[C@H](O)[C@H]3O)c(O)c12` [mangiferin] is 0.118. For `C/C=N/N(C)C=O` [gyromitrin] the value was -0.0464.

For the compound `C=C1C[C@]23C[C@@]1(O)CC[C@H]2[C@@]12C=C[C@H](O)[C@@](C)(C(=O)O1)[C@H]2[C@@H]3C(=O)O` [gibberellic acid], the log is 0.288. For the compound `c1ccc2[nH]c(-c3cscn3)nc2c1` [thiabendazole], the log was found to be 0.148.

As for `OC[C@@H](O)[C@@H](O[C@@H]1O[C@H](CO)[C@H](O)[C@H](O)[C@H]1O)[C@H](O)[C@@H](O)CO` [lacitol], the log stood at 0.089. Take `OC[C@@H](O)[C@@H](O[C@@H]1O[C@H](CO)[C@H](O)[C@H](O)[C@H]1O)[C@H](O)[C@@H](O)CO` [d-lactitol monohydrate]: the log was -0.0616. The figure for `CN1[C@@H](CC(=O)c2ccccc2)CCC[C@H]1C[C@H](O)c1ccccc1` [lobeline hydrochloride] is 0.0595; for `CC1(C)[C@H]2CC[C@]1(CS(=O)(=O)O)C(=O)C2=Cc1ccc(C=C2C(=O)[C@@]3(CS(=O)(=O)O)CC[C@@H]2C3(C)C)cc1` [ecamsule triethanolamine] it is -0.0915; for `COc1ccc(C(=O)c2ccc(C)cc2)c(O)c1` [mexeneone] it is -0.00752. Regarding `NC(=O)NC(=O)Cc1ccccc1` [phenacemide], the log was -0.0225. Turning to `CC(C)[C@H](NC(=O)[C@H](CC(=O)O)NC(=O)[C@H](CCCCN)NC(=O)[C@@H](N)CCCN=C(N)N)C(=O)N[C@@H](Cc1ccc(O)cc1)C(=O)O` [thymopentin], the log turned out to be 0.0214. In the case of `C[C@]12CC[C@@H]3c4ccc(O)cc4CC[C@H]3[C@@H]1CCC2=O` [estrone], the log worked out at 0.061. Consider `CN(C)[C@@H]1C(O)=C(C(N)=O)C(=O)[C@@]2(O)C(O)=C3C(=O)c4c(O)ccc(Cl)c4[C@@](C)(O)[C@H]3C[C@@H]12` [chlortetracycline hydrochloride], for which the log is -0.0645. For `O=C1OC2(c3ccc(O)cc3Oc3cc(O)ccc32)c2ccccc21` [fluorescein] the value was 0.0764. Take `CC(=O)OCC1=C(C(=O)O)N2C(=O)[C@@H](NC(=O)CSc3ccncc3)[C@H]2SC1` [cephapirin sodium]: the log is -0.0711. With `COc1cnc(NS(=O)(=O)c2ccc(N)cc2)nc1` [sulfameter], the log was -0.034. For `O=C(O)CCC(=O)Nc1ccc(S(=O)(=O)Nc2nccs2)cc1` [succinylsulfathiazole] the value was 0.00408. For the compound `Cc1cccc(CN2CCN(C(c3ccccc3)c3ccc(Cl)cc3)CC2)c1` (configuration not stated) [meclizine hydrochloride], the log was -0.0613. As to `COc1ccccc1O` [guaiacol], the log is 0.0119. For `O=NN(CCCl)C(=O)NC1CCCCC1` [lomustine] the value was 0.0284; for `CCOC(=O)C1=C[C@]2(CC)CCCN3CCc4c(n1c1ccccc41)[C@@H]32` [vinpocetine], -0.214.

On to `COc1ccc2c(c1)OCC(Cc1ccc(OC)c(OC(C)=O)c1)C2=O` (configuration not stated) [deoxysappanone b 7,3'-dimethyl ether acetate], for which the log was 0.0757. The figure for `OCCOCCN1CCN(C(c2ccccc2)c2ccc(Cl)cc2)CC1` (configuration not stated) [hydroxyzine pamoate] is 0.177; for `CC(=O)O[C@H]1C[C@@H](OC(C)=O)C(C)(C)C2C[C@@H](O)[C@]3(C)C(CC[C@@]4(C)[C@H](c5ccoc5)OC(=O)[C@H]5O[C@]543)[C@]21C` (some centres not stated) [7-deacetylkhivorin] it is 0.115; for `Cc1cc(-n2c(=O)[nH]c(=O)n(C)c2=O)ccc1Oc1ccc(SC(F)(F)F)cc1` [toltrazuril] it is 0.116. The figure for `Cc1ccccc1N1C(=O)c2cc(S(N)(=O)=O)c(Cl)cc2NC1C` (configuration not stated) [metolazone] is -0.00861; for `CO[C@H]1[C@H](O)[C@@H](O)[C@H](O)[C@H](O)[C@H]1O` [quebrachitol] it is 0.0492. For the compound `COc1ccc(-c2coc3c(OC)c(OC)cc(O)c3c2=O)cc1` [isotectorigenin, 7-methyl ether], the log was -0.0306. The figure for `CC(C)COC(=O)c1ccc(N)cc1` [isobutamben] is -0.0767.

`COc1ccc(C(=O)c2ccc(O)cc2)c(O)c1O` [2,3,4'-trihydroxy-4-methoxybenzophenone]: the log came out at 0.0454. As for `COc1ccc2[nH]c([S+]([O-])Cc3ncc(C)c(OC)c3C)nc2c1` (configuration not stated) [omeprazole], the log stood at 0.101. With `CCCCC(CC)CN=C(N)N=C(N)NCCCCCCNC(N)=NC(N)=NCC(CC)CCCC` (configuration not stated) [alexidine hydrochloride], the log was -1.32. The figure for `CC(=O)Nc1ccc(O)cc1` [acetaminophen] is -0.00664.

On to `CC(=O)Oc1c(C)c(C)c2c(c1C)CCC(C)(CCCC(C)CCCC(C)CCCC(C)C)O2` (stereo not drawn) [alpha-tochopheryl acetate], for which the log is -0.0684. In the case of `C=CCSCC(N)C(=O)O` (stereo not drawn) [l-deoxyalliin], the log is -0.0297. With `O=S(=O)(O)CCCS(=O)(=O)O` [eprodisate disodium], the log came to 0.125.

With `CO/N=C(\C(=O)N[C@@H]1C(=O)N2C(C(=O)O)=C(C[N+]3(C)CCCC3)CS[C@H]12)c1csc(N)n1` [cefepime hydrochloride], the log came out at 0.0629. As for `CCOC(=O)[C@H](CCc1ccccc1)N[C@@H](C)C(=O)N1CCC[C@H]1C(=O)O` [enalapril maleate], the log is 0.294.

As to `CC(=O)N[C@@H](Cc1ccccc1)C(=O)O` [acetylphenylalanine], the log was -0.102.
